The target of the test is NbREM4 (N. benthamiana remorin), yeast two-hybrid fusion (Nicotiana benthamiana). In words: two-hybrid.

One molecule from paper doi:10.1101/409235 can be followed below.

No constants are given. Whether binding was seen depends on the method and setting. A result given as binding can be weak or reduced; the word gives no strength. Where a sequence is shown, tags or fusion partners need not be part of it.

B1: AtPBS1 (A. thaliana PBS1) fused to the GAL4 activation domain (enzyme, UniProt Q9FE20 1-456)
chain: MGCFSCFDSSDDEKLNPVDESNHGQKKQSQPTVSNNISGLPSGGEKLSSKTNGGSKRELLLPRDGLGQIAAHTFAFRELAAATMNFHPDTFLGEGGFGRVYKGRLDSTGQVVAVKQLDRNGLQGNREFLVEVLMLSLLHHPNLVNLIGYCADGDQRLLVYEFMPLGSLEDHLHDLPPDKEALDWNMRMKIAAGAAKGLEFLHDKANPPVIYRDFKSSNILLDEGFHPKLSDFGLAKLGPTGDKSHVSTRVMGTYGYCAPEYAMTGQLTVKSDVYSFGVVFLELITGRKAIDSEMPHGEQNLVAWARPLFNDRRKFIKLADPRLKGRFPTRALYQALAVASMCIQEQAATRPLIADVVTALSYLANQAYDPSKDDSRRNRDERGARLITRNDDGGGSGSKFDLEGSEKEDSPRETARILNRDINRERAVAEAKMWGESLREKRRQSEQGTSESNSTG
As for B1, the binding entry is “binds”.
